# In the supplement of paper PMC8326762, “A Small Molecule Inhibitor of Pex3–Pex19 Interaction Disrupts Glycosome Biogenesis and Causes Lethality in Trypanosoma brucei” (Frontiers in Cell and Developmental Biology, 2021):
# Where a name gives a salt, the structure may show the parent alone. This is one part of the list. The data scatter; read single values as rough.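 Optical density at 600 nm measured yeast growth. Because the two-hybrid strains grew without histidine, growth required Pex3–Pex19 binding. Trypanosome selectivity meant a compound inhibited the trypanosome-pair strain's growth by more than 65% but the human-pair strain's by less than 65%.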
# Columns and labels:
# [1] = system: Saccharomyces cerevisiae HF7c pdr5Δ; assay: general growth inhibition of yeast HF7c pdr5Δ in -Leu -Trp medium, relative to DMSO; higher = stronger general growth inhibition; conditions: 100 µM; 24 h
# [2] = system: human PEX3-PEX19 interaction (yeast two-hybrid); assay: growth inhibition of yeast two-hybrid strain reporting HsPex3-HsPex19 interaction, relative to DMSO; higher = stronger inhibition of human Pex3-Pex19 interaction / growth; conditions: 100 µM; 24 h; 3-aminotriazole 10 mM
# [3] = system: T. brucei Pex3-Pex19 interaction (yeast two-hybrid); assay: growth inhibition of yeast two-hybrid strain reporting TbPex3-TbPex19 interaction, relative to DMSO; higher = stronger inhibition of T. brucei Pex3-Pex19 interaction / growth; conditions: 100 µM; 24 h
SMILES,general growth inhibition [1],growth inhibition [2],growth inhibition [3]
OCCN(CCO)c1nc(N2CCCCC2)c2nc(N(CCO)CCO)nc(N3CCCCC3)c2n1 [Dipyridamole],33.2%,23.5%,51.2%
Cc1nc2c([nH]1)c(=O)n(C)c(=O)n2Cc1ccco1 [Furafylline],37.7%,44.2%,65.4%
CCN(CC)CCNC(=O)c1c(C)[nH]c(/C=C2\C(=O)Nc3ccc(F)cc32)c1C [Sunitinib malate],34.2%,21.4%,61.7%
CCN(Cc1ccncc1)C(=O)C(CO)c1ccccc1 (stereo not drawn) [Tropicamide],39%,47.2%,58%
N[C@H]1CONC1=O [L-Cycloserine],45.3%,38.2%,60.8%
CCSC(=N)N [S-Ethylisothiourea hydrobromide],18.4%,39.6%,53.5%
CCCN(CCc1ccccc1)C1CCc2c(O)cccc2C1 (racemic) [(±)-PPHT hydrochloride],48.2%,25.4%,62.6%
CCCCC1(C2CCCC2)Cc2cc(OCC(=O)O)c(Cl)c(Cl)c2C1=O (stereo in doubt) [R(+)-Butylindazone],78.3%,60.4%,61.6%
"O=C(O)c1cc(=O)c2c(Cl)cc(Cl)cc2[nH]1 [5,7-Dichlorokynurenic acid]",20%,25%,69.8%
N[C@@H](Cc1c[nH]cn1)C(=O)O [L-Histidine hydrochloride],31.7%,35.3%,39.5%
CN(C)CCC=C1c2ccccc2C=Cc2ccccc21 [Cyclobenzaprine hydrochloride],30.4%,37.5%,39.2%

# Ordered by molecular weight (rising): some entries from above.
SMILES,general growth inhibition [1],growth inhibition [2],growth inhibition [3]
CN(C)CCC=C1c2ccccc2C=Cc2ccccc21 [Cyclobenzaprine hydrochloride],30.4%,37.5%,39.2%
CCCN(CCc1ccccc1)C1CCc2c(O)cccc2C1 (racemic) [(±)-PPHT hydrochloride],48.2%,25.4%,62.6%
OCCN(CCO)c1nc(N2CCCCC2)c2nc(N(CCO)CCO)nc(N3CCCCC3)c2n1 [Dipyridamole],33.2%,23.5%,51.2%
